According to paper PMC8555990:
No constants are given. Whether binding was seen depends on the method and setting. Binding seen in cells or lysates may run through a third protein. Some entries that bind do so weakly or less than the wild type.

Sequences of proteins named here, by UniProt entry; tags and fusion partners are left off.
UniProt Q02248: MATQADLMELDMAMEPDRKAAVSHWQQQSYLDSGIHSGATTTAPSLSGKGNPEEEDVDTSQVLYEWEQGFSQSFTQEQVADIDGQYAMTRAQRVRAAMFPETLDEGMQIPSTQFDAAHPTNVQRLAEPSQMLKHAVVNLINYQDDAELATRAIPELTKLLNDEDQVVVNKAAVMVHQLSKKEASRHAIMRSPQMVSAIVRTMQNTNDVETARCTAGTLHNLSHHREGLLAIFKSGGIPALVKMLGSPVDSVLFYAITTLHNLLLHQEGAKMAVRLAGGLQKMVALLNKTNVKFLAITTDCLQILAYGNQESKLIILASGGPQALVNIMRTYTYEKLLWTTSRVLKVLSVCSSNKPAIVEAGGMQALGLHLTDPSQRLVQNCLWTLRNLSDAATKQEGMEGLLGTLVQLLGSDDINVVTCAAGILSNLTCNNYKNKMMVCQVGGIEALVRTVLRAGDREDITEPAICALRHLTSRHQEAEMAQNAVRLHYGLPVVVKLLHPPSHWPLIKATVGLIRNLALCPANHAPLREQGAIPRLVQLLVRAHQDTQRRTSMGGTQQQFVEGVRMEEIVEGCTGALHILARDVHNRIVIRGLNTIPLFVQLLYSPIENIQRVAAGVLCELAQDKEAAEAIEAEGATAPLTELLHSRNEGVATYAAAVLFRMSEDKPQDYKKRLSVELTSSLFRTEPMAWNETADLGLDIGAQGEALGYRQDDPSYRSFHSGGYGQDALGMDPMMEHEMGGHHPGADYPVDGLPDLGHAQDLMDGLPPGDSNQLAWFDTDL
UniProt Q04207: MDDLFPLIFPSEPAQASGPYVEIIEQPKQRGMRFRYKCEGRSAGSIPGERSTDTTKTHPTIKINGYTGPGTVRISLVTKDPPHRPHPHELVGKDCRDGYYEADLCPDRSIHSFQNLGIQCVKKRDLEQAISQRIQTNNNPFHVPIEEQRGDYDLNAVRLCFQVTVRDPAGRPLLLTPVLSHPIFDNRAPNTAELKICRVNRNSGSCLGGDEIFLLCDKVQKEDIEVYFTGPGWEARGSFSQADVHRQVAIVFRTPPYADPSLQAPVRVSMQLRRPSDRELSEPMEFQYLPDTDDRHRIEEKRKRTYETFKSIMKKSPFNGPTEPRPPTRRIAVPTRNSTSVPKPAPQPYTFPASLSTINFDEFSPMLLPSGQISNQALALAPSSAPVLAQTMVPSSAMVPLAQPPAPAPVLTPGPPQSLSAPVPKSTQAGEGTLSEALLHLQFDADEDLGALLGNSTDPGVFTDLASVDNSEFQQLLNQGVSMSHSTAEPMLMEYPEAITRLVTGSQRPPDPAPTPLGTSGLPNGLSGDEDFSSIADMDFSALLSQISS

How the values were obtained:
[1] = target: β-catenin (mouse (endogenous in SMCC and mouse liver)) (UniProt Q02248); assay: co-IP; 1 mg SMCC whole-cell lysate (RIPA), precleared, β-catenin antibody or control IgG overnight at 4°C, Protein A/G PLUS-Agarose, washed with RIPA; blots for CFTR and p65
[2] = target: p65 subunit of NF-κB (mouse (endogenous in SMCC and mouse liver)) (UniProt Q04207); assay: co-IP; 1 mg SMCC whole-cell lysate (RIPA), precleared, p65 antibody overnight at 4°C, Protein A/G PLUS-Agarose, washed with RIPA; blot for β-catenin
[3] = target: p65 subunit of NF-κB (mouse (endogenous in SMCC and mouse liver)) (UniProt Q04207); assay: co-IP; normal mouse whole liver lysate (RIPA), p65 pulled down; blot for β-catenin

| binding [1] | binding [2] | binding [3] | Substance |
| --- | --- | --- | --- |
| binds | – | – | p65 subunit of NF-κB (from UniProt Q04207 1-549) |
| – | binds | binds | β-catenin (from UniProt Q02248 1-781) |
